No constants are given. Whether binding was seen depends on the method and setting. Binding seen in cells or lysates may run through a third protein. Here binding means that the protein was enriched with, or labelled near, the bait; the list need not be complete. For some assays here: No binding means not detected with the bait. For some assays here: Tags and fused reporters may be left off the sequences shown. Blank lines part the entries; values can stand above or below the substance they belong to.
Assays:
SFB-tagged FOXM1 (human) [1] = molecular target: T1, SFB-tagged FOXM1 (human) (UniProt Q08050); assay: affinity purification with mass spectrometry; TAP (streptavidin beads, biotin elution, S-protein beads; NETN buffer) of C-terminally SFB-tagged bait from HEK293T; soluble fraction (supernatant of the NETN lysate); forward and reciprocal purifications
T1 sequence: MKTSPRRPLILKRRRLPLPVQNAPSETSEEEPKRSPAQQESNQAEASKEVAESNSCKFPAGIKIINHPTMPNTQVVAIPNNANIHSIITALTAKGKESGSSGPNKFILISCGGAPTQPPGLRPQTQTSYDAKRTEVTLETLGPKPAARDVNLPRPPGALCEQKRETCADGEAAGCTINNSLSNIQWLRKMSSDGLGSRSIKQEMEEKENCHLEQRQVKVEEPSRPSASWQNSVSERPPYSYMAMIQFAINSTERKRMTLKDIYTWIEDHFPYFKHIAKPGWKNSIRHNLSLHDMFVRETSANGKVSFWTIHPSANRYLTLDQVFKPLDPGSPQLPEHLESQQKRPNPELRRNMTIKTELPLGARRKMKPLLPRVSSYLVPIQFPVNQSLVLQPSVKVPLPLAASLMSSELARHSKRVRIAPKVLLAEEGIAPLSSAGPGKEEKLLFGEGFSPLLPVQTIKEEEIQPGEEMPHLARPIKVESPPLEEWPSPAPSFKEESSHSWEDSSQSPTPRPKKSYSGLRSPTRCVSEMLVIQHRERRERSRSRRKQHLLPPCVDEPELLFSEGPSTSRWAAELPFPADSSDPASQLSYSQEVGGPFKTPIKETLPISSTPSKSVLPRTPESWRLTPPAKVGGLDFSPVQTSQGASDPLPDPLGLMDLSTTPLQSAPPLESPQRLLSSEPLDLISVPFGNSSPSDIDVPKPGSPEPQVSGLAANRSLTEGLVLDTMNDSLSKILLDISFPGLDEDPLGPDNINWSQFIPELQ

Sequences of proteins named here, by UniProt entry; tags and fusion partners are left off.
UniProt P61244: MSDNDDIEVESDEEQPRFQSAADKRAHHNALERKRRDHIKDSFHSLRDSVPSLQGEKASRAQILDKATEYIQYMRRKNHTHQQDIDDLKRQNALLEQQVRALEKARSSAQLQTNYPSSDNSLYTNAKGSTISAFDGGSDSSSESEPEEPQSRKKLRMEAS
UniProt Q969R5: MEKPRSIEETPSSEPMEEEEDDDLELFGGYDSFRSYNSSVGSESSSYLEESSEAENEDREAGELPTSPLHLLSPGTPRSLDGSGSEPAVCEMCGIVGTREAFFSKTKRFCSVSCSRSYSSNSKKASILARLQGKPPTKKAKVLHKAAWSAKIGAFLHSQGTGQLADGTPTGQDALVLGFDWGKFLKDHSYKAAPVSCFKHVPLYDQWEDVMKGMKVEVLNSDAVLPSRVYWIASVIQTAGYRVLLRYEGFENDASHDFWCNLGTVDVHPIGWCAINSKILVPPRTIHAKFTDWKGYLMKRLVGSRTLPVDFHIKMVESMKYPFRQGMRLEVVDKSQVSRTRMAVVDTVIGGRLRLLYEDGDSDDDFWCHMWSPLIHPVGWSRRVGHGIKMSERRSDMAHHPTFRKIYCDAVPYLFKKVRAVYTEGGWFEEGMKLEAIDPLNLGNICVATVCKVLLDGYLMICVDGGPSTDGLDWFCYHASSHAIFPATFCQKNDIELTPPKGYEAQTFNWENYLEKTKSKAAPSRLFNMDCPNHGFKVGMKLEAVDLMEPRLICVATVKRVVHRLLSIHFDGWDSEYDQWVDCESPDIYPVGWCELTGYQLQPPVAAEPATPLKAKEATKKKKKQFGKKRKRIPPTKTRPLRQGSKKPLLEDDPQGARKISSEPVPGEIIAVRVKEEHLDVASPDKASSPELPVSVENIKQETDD
UniProt O75461: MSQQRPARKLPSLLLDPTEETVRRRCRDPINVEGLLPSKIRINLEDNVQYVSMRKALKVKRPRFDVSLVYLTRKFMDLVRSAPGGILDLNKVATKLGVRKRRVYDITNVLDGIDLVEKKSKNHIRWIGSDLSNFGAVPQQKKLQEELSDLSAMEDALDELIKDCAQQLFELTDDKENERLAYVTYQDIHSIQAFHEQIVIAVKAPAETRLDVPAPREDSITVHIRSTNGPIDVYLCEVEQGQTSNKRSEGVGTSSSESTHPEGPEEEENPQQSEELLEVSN
UniProt Q9UKB1: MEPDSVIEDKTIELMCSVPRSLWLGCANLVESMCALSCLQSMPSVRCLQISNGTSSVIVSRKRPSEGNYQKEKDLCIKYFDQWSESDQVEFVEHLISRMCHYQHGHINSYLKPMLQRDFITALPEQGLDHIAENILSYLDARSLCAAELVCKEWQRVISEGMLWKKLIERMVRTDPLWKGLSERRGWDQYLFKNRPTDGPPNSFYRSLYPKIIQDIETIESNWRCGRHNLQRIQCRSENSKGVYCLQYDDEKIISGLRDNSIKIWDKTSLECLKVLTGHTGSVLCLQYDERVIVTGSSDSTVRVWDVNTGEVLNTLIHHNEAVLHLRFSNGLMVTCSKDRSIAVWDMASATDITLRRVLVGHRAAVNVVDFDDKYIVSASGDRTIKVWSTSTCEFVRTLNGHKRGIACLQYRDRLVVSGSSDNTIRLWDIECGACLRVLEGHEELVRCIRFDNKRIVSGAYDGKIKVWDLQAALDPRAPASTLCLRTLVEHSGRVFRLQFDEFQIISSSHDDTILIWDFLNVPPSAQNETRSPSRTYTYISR
UniProt Q5TKA1: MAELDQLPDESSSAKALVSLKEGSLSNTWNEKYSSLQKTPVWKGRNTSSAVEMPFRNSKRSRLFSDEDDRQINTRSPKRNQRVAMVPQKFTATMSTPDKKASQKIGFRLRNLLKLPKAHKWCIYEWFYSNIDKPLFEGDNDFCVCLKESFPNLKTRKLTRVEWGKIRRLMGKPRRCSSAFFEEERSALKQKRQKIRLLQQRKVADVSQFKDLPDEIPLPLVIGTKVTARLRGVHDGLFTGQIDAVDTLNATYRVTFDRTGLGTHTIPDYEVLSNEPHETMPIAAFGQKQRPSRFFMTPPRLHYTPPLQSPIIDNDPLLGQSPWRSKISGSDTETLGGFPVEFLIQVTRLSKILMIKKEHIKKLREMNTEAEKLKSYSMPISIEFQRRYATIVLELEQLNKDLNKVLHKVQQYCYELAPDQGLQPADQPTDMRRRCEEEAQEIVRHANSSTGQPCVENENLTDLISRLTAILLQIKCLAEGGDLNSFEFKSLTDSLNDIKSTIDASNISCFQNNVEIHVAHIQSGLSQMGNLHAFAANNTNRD
UniProt P35453: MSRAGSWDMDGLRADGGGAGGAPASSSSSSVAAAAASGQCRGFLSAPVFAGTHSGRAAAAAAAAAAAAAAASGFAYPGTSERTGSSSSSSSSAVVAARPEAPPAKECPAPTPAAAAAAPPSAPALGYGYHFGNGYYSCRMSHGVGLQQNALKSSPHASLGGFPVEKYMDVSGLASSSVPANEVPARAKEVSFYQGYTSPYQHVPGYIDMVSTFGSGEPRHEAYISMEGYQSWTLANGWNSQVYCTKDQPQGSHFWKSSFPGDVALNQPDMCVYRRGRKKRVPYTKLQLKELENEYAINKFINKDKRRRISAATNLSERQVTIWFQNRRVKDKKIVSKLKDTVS
UniProt Q9Y297: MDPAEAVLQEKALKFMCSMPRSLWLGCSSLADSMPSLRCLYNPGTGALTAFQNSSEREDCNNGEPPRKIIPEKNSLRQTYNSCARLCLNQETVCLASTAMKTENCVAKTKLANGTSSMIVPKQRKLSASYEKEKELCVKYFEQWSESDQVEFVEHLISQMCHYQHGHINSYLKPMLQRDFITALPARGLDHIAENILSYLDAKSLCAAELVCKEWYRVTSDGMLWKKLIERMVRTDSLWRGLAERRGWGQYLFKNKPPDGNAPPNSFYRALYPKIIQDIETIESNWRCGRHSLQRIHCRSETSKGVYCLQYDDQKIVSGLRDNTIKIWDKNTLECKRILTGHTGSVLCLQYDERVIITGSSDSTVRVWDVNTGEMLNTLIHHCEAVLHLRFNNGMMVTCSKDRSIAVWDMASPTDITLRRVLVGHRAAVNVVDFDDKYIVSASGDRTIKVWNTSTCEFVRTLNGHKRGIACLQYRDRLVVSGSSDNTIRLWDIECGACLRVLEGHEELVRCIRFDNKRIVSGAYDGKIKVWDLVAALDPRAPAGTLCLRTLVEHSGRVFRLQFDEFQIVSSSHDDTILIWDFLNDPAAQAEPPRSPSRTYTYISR
UniProt P16220: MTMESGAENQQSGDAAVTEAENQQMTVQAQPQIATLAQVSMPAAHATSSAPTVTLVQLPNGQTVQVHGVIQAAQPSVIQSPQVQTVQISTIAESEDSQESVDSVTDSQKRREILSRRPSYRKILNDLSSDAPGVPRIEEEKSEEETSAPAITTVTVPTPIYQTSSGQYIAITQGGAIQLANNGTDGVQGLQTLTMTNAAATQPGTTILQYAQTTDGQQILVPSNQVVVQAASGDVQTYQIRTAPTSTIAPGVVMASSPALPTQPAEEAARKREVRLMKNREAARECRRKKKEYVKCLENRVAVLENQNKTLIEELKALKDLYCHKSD
UniProt Q6MZP7: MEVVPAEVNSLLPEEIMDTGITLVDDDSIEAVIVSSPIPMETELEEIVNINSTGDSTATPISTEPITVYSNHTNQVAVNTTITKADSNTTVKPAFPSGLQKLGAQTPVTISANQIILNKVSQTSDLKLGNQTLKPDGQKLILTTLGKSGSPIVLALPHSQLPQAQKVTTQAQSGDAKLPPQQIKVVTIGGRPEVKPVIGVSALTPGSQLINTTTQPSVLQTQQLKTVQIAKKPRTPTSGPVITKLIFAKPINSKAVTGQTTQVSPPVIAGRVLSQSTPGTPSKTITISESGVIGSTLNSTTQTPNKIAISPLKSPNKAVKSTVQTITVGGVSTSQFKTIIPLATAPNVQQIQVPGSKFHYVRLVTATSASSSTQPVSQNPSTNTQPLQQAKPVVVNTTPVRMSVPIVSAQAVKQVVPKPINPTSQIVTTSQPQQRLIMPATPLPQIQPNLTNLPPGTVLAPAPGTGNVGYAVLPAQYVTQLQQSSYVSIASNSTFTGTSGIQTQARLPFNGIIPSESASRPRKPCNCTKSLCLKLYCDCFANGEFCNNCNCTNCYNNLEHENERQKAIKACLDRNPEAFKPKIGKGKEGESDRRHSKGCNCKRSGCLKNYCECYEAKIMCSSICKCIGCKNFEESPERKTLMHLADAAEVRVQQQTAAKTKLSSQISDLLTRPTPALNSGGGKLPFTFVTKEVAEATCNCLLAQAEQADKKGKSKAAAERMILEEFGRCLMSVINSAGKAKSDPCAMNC
UniProt P07814: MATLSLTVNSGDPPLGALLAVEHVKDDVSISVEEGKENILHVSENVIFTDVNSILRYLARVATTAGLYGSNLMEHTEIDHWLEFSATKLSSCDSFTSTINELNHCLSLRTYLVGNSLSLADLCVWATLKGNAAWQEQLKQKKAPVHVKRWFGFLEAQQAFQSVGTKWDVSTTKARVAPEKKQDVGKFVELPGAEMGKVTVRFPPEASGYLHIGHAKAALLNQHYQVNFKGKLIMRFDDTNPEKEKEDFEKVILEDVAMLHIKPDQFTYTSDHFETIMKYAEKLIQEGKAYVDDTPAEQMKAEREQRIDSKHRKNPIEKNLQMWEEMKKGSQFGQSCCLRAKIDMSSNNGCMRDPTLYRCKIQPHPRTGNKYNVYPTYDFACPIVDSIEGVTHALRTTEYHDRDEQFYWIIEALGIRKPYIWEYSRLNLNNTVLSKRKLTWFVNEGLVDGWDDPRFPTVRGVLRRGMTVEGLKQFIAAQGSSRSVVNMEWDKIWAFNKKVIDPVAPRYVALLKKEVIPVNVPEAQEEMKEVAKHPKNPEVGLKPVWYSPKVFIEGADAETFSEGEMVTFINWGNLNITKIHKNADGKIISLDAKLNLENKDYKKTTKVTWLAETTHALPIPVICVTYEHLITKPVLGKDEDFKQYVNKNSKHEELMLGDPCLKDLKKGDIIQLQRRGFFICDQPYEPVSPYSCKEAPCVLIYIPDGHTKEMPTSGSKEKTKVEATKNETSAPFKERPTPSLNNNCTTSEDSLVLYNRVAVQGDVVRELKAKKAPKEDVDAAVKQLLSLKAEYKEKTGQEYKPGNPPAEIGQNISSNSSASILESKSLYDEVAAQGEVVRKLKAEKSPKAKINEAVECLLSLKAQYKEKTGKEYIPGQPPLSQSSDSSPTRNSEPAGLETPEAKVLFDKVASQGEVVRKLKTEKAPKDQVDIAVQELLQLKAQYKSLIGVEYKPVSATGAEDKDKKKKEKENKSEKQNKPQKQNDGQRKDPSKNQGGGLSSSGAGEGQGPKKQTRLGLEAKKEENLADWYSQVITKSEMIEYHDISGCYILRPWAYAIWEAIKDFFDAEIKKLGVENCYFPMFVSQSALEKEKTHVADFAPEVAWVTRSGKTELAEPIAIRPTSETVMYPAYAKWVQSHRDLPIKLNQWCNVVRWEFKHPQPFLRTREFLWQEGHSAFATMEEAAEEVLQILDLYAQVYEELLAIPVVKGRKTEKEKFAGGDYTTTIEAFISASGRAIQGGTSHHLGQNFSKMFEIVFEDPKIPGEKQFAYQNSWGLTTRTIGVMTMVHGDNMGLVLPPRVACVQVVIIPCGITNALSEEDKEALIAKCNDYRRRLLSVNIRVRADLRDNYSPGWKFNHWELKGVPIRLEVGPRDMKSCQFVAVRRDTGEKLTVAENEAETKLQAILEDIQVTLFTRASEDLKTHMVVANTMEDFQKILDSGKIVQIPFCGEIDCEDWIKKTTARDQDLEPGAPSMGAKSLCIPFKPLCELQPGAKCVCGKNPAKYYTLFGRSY
UniProt P10244: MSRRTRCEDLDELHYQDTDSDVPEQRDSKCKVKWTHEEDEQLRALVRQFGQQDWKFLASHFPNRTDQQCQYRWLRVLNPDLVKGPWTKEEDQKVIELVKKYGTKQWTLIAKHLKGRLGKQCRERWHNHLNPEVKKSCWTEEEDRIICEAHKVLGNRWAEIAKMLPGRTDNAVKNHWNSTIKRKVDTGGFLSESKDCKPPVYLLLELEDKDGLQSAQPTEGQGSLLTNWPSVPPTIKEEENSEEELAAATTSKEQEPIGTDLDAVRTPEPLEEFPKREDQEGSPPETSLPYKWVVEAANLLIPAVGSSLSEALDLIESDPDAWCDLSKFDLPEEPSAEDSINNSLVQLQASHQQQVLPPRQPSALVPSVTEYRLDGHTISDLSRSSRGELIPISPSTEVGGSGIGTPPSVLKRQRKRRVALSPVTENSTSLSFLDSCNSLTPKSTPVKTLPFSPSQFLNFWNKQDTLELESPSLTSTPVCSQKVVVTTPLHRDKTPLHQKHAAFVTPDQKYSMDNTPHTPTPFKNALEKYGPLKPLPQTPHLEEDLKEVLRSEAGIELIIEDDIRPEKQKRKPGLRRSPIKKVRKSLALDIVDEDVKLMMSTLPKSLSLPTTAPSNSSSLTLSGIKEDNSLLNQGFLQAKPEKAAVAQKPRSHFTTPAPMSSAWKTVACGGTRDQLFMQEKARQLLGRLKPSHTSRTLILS

SFB-tagged FOXM1 (human) [2] = molecular target: T1, SFB-tagged FOXM1 (human); assay: affinity purification with mass spectrometry; TAP (streptavidin beads, biotin elution, S-protein beads; NETN buffer) of C-terminally SFB-tagged bait from HEK293T; chromatin fraction (pellet after NETN lysis, digested with TurboNuclease); forward and reciprocal purifications; some baits also after drug treatment
SFB-tagged FOXN2 (human) = molecular target: T2, SFB-tagged FOXN2 (human) (UniProt P32314); assay: affinity purification with mass spectrometry; TAP (streptavidin beads, biotin elution, S-protein beads; NETN buffer) of C-terminally SFB-tagged bait from HEK293T; soluble fraction (supernatant of the NETN lysate); forward and reciprocal purifications
T2 sequence: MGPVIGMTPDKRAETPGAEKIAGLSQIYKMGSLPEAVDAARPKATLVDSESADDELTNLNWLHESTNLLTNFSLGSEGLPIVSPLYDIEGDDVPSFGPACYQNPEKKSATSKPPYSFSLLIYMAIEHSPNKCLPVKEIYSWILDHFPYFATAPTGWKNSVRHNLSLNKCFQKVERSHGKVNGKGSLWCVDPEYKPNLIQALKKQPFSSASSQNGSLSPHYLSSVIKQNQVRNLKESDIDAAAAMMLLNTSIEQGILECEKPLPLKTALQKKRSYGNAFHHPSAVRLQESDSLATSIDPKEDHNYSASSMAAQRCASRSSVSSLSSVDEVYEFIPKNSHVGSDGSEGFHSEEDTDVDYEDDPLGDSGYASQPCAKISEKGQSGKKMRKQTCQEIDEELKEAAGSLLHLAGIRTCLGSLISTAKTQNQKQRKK

SFB-tagged MAX (human) = SFB-tagged MAX (human) (UniProt P61244); assay: affinity purification with mass spectrometry; TAP (streptavidin beads, biotin elution, S-protein beads; NETN buffer) of C-terminally SFB-tagged bait from HEK293T; chromatin fraction (pellet after NETN lysis, digested with TurboNuclease); forward and reciprocal purifications; some baits also after drug treatment
[3] = molecular target: L3MBTL2 as bait of the reciprocal TAP/MS (UniProt Q969R5); assay: affinity purification with mass spectrometry; TAP (streptavidin beads, biotin elution, S-protein beads; NETN buffer) of C-terminally SFB-tagged bait from HEK293T; soluble fraction (supernatant of the NETN lysate); forward and reciprocal purifications
[4] = molecular target: E2F6 as bait of the reciprocal TAP/MS (UniProt O75461); assay: affinity purification with mass spectrometry; TAP (streptavidin beads, biotin elution, S-protein beads; NETN buffer) of C-terminally SFB-tagged bait from HEK293T; chromatin fraction (pellet after NETN lysis, digested with TurboNuclease); forward and reciprocal purifications; some baits also after drug treatment
SFB-tagged FOXK2 (human) = SFB-tagged FOXK2 (human) (UniProt Q01167); assay: as above
[5] = molecular target: T3, SFB-tagged NFATC1 (human) (UniProt O95644); assay: as above
T3 sequence: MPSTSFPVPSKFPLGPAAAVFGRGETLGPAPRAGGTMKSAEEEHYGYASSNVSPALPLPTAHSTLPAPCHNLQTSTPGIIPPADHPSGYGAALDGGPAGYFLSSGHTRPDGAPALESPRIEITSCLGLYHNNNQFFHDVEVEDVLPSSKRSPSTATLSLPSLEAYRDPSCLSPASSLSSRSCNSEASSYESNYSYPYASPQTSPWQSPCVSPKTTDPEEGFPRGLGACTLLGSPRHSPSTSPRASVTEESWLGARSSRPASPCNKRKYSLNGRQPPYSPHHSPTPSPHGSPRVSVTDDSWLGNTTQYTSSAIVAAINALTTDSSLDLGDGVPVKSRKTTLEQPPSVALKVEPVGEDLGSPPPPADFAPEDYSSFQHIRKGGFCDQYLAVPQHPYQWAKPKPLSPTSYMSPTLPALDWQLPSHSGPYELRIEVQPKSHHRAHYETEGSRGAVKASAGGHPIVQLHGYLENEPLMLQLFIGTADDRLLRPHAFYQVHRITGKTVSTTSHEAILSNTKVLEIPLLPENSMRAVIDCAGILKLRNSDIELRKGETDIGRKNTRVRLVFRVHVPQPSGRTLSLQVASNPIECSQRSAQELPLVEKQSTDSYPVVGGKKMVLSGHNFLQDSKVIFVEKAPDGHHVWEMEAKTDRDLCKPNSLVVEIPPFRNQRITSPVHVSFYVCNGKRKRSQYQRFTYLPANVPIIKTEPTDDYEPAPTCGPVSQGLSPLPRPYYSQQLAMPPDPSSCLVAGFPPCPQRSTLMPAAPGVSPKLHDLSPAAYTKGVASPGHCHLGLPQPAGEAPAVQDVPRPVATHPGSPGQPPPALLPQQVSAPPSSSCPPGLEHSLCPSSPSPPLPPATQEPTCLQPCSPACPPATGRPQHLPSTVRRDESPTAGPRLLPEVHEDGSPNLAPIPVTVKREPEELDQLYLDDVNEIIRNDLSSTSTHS

[6] = molecular target: βTRCP2/FBXW11 as bait of the reciprocal TAP/MS (UniProt Q9UKB1); assay: affinity purification with mass spectrometry; same TAP/MS of SFB-tagged bait from HEK293T; the fraction in which the hit was found is not given
[7] = molecular target: T4, NFATC2 as bait of the reciprocal TAP/MS (UniProt Q13469); assay: affinity purification with mass spectrometry; TAP (streptavidin beads, biotin elution, S-protein beads; NETN buffer) of C-terminally SFB-tagged bait from HEK293T; soluble fraction (supernatant of the NETN lysate); forward and reciprocal purifications
T4 sequence: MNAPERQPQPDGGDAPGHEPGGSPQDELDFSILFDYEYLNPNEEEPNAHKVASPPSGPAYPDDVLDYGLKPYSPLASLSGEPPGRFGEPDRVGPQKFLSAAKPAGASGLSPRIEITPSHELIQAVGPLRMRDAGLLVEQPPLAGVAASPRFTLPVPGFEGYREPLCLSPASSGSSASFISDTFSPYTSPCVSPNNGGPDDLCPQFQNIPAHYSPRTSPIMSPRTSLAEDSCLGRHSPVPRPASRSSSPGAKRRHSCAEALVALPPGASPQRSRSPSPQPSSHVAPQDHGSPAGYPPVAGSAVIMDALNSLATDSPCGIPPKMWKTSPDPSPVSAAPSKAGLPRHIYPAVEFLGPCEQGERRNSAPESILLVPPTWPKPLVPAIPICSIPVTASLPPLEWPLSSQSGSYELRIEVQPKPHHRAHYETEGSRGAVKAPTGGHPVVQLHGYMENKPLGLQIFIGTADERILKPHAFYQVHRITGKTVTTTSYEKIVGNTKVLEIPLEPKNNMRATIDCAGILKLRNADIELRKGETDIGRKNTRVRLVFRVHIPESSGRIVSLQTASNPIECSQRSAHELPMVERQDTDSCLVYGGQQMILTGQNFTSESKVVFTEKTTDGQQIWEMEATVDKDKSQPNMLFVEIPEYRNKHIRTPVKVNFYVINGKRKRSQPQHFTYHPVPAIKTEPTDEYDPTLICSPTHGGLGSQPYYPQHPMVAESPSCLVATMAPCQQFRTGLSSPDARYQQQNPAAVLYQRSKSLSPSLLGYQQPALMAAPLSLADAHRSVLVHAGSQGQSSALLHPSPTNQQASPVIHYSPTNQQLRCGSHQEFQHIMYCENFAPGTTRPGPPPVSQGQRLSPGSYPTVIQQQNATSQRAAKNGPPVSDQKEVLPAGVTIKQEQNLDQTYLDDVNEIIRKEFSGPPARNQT

SFB-tagged ATF1 [8] = molecular target: T5, SFB-tagged ATF1 (UniProt P18846); assay: as above
T5 sequence: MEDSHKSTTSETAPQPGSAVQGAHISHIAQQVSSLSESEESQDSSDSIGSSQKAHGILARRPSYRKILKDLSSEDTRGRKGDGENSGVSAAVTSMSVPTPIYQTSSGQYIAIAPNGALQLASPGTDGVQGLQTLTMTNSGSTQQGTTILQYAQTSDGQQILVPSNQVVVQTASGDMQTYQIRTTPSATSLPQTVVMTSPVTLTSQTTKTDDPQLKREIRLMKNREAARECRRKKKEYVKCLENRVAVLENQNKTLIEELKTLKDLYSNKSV

[9] = molecular target: T3, SFB-tagged NFATC1 (human); assay: as above
[10] = molecular target: T4, NFATC2 as bait of the reciprocal TAP/MS; assay: affinity purification with mass spectrometry; TAP (streptavidin beads, biotin elution, S-protein beads; NETN buffer) of C-terminally SFB-tagged bait from HEK293T; chromatin fraction (pellet after NETN lysis, digested with TurboNuclease); forward and reciprocal purifications; some baits also after drug treatment
SFB-tagged ATF1 [11] = molecular target: T5, SFB-tagged ATF1; assay: as above

Substance: LIN9 (endogenous) (from UniProt Q5TKA1 1-542)
binding (SFB-tagged FOXM1 (human) [1]): no binding (only in the soluble fraction)
binding (SFB-tagged FOXM1 (human) [2]): binds

Substance: βTRCP2 (endogenous) (from UniProt Q9UKB1 1-542)
binding (SFB-tagged FOXN2 (human)): binds

Substance: MAX (endogenous) (from UniProt P61244 1-160)
binding [3]: binds
binding [4]: binds
binding (SFB-tagged FOXK2 (human)): binds

Substance: HOXD13 (endogenous) (from UniProt P35453 1-343)
binding [5]: binds

Substance: CTNNB1 (endogenous) (from UniProt P35222 1-781)
binding [6]: binds

Substance: E2F6 (endogenous) (from UniProt O75461 1-281)
binding (SFB-tagged MAX (human)): binds

Substance: LIN37 (endogenous) (from UniProt Q96GY3 1-246)
binding (SFB-tagged FOXM1 (human) [1]): no binding (only in the soluble fraction)
binding (SFB-tagged FOXM1 (human) [2]): binds

Substance: βTRCP (endogenous) (from UniProt Q9Y297 1-605)
binding (SFB-tagged FOXN2 (human)): binds

Substance: CREB1 (endogenous) (from UniProt P16220 1-327)
binding [7]: no binding (only in the soluble fraction)
binding (SFB-tagged ATF1 [8]): binds
binding [9]: no binding (only in the soluble fraction)
binding [10]: binds
binding (SFB-tagged ATF1 [11]): binds
binding [5]: binds

Substance: L3MBTL2 (endogenous) (from UniProt Q969R5 1-705)
binding (SFB-tagged MAX (human)): binds

Substance: LIN54 (endogenous) (from UniProt Q6MZP7 1-749)
binding (SFB-tagged FOXM1 (human) [1]): no binding (only in the soluble fraction)
binding (SFB-tagged FOXM1 (human) [2]): binds

Second part, led by results:

binding (SFB-tagged FOXM1 (human) [1]): binds
Substance: EPRS (endogenous) (from UniProt P07814 1-1512)
binding (SFB-tagged FOXM1 (human) [2]): no binding (only in the chromatin fraction)

binding (SFB-tagged MAX (human)): binds
Substance: FOXK2 (endogenous) (from UniProt Q01167 1-660)

binding (SFB-tagged FOXM1 (human) [2]): binds
Substance: MYBL2 (endogenous) (from UniProt P10244 1-700)
binding (SFB-tagged FOXM1 (human) [1]): no binding (only in the soluble fraction)

binding [5]: binds
Substance: JUN (endogenous) (from UniProt P05412 1-331)

binding [6]: binds
binding (SFB-tagged FOXN2 (human)): binds
Substance: SKP1 (endogenous) (from UniProt P63208 1-163)
